# According to the supplement of paper PMC8728848:
# The list shows a part of the results.
# Columns and labels:
# Test in all cases: glycan array binding signal (z-score within array); higher = stronger binding
# Conditions in all cases: glycan notation: IUPAC condensed, linker removed
# [1] = target: Gal(b1-4)GlcNAc(b1-6)GalNAc
# How it was run: (§1)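 Glycan array data were curated from 3228 arrays in the Consortium for Functional Glycomics database and kept only where the protein sequence was available. Glycan names were converted to IUPAC-condensed notation, and columns mapping to the same glycan were averaged. The binding signal is a within-array Z-score, averaged across arrays of the same protein sequence at different concentrations or buffers and across linkers. Negative Z-scores can be read as non-binding.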
# [2] = target: Gal(b1-4)GlcNAc(b1-6)[Gal(b1-3)]GalNAc
# How it was run: as §1
# [3] = target: Gal(b1-4)GlcNAc(b1-6)[Gal(b1-4)GlcNAc(b1-3)]GalNAc
# How it was run: as §1
# [4] = target: Gal(b1-4)GlcNAc6P
# How it was run: as §1
# [5] = target: Gal(b1-6)Gal
# How it was run: as §1
# [6] = target: Gal3S(b1-3)GalNAc
# How it was run: as §1
# [7] = target: Gal3S(b1-3)GlcNAc
# How it was run: as §1
# [8] = target: Gal3S(b1-3)[Fuc(a1-4)]GlcNAc
# How it was run: as §1
# [9] = target: Gal3S(b1-4)Glc
# How it was run: as §1
# [10] = target: Gal3S(b1-4)Glc6S
# How it was run: as §1
# [11] = target: Gal3S(b1-4)GlcNAc
# How it was run: as §1
# [12] = target: Gal3S(b1-4)[Fuc(a1-3)]Glc6S
# How it was run: as §1
# [13] = target: Gal3S(b1-4)[Fuc(a1-3)]GlcNAc
# How it was run: as §1
# [14] = target: Gal3S(b1-4)[Fuc(a1-3)]GlcNAc6S
# How it was run: as §1
# [15] = target: Gal3S4S(b1-4)GlcNAc
# How it was run: as §1
# [16] = target: Gal3S6S(b1-4)GlcNAc
# How it was run: as §1
# [17] = target: Gal3S6S(b1-4)GlcNAc6S
# How it was run: as §1
# [18] = target: Gal4S(b1-4)GlcNAc
# How it was run: as §1
# [19] = target: Gal4S6S(b1-4)GlcNAc
# How it was run: as §1
# [20] = target: Gal6P(b1-4)GlcNAc
# How it was run: as §1
# [21] = target: Gal6S(b1-3)GlcNAc
# How it was run: as §1
# [22] = target: Gal6S(b1-3)GlcNAc6S
# How it was run: as §1
# [23] = target: Gal6S(b1-4)Glc
# How it was run: as §1
binder,measurement,setting,value
"YghJ (Escherichia coli), E3PJ90 (protein) MNKKFKYKKSLLAAILSATLLAGCDGGGSGSSSDTPPVDSGTGSLPEVKPDPTPNPEPTPEPTPDPEPTPEPIPDPEPTPEPEPEPVPTKTGYLTLGGSQRVTGATCNGESSDGFTFKPGEDVTCVAGNTTIATFNTQSEAARSLRAVEKVSFSLEDAQELAGSDDKKSNAVSLVTSSNSCPANTEQVCLTFSSVIESKRFDSLYKQIDLAPEEFKKLVNEEVENNAATDKAPSTHTSPVVPVTTPGTKPDLNASFVSANAEQFYQYQPTEIILSEGRLVDSQGYGVAGVNYYTNSGRGVTGENGEFSFSWGEAISFGIDTFELGSVRGNKSTIALTELGDEVRGANIDQLIHRYSTTGQNNTRVVPDDVRKVFAEYPNVINEIINLSLSNGATLGEGEQVVNLPNEFIEQFNTGQAKEIDTAICAKTDGCNEARWFSLTTRNVNDGQIQGVINKLWGVDTNYKSVSKFHVFHDSTNFYGSTGNARGQAVVNISNAAFPILMARNDKNYWLAFGEKRAWDKNELAYITEAPSIVRPENVTRETASFNLPFISLGQVGDGKLMVIGNPHYNSILRCPNGYSWNGGVNKDGQCTLNSDPDDMKNFMENVLRYLSNDRWLPDAKSSMTVGTNLETVYFKKHGQVLGNSAPFAFHKDFTGITVKPMTSYGNLNPDEVPLLILNGFEYVTQWGSDPYSIPLRADTSKPKLTQQDVTDLIAYMNKGGSVLIMENVMSNLKEESASGFVRLLDAAGLSMALNKSVVNNDPQGYPDRVRQRRSTPIWVYERYPAVDGKPPYTIDDTTKEVIWKYQQENKPDDKPKLEVASWQEEVEGKQVTQFAFIDEADHKTPESLAAAKQRILDAFPGLEVCKDSDYHYEVNCLEYRPGTDVPVTGGMYVPQYTQLDLSADTAKAMLQAADLGTNIQRLYQHELYFRTNGRQGERLNSVDLERLYQNMSVWLWNETKYRYEEGKEDELGFKTFTEFLNCYTNNAYVGTQCSAELKKSLIDNKMIYGEESSKAGMMNPSYPLNYMEKPLTRLMLGRSWWDLNIKVDVEKYPGVVNTNGETVTQNINLYSAPTKWFAGNMQSTGLWAPAQQEVSIESKSTVPVTVTVALADDLTGREKHEVSLNRPPRVTKTYDLKANDKVTFKVPYGGLIYIKGDSKEVQSADFTFTGVVKAPFYKDGKWQHDLNSPAPLGELESASFVYTTPKKNLNASNYTGGLEQFANDLDTFASSMNDFYGRDSEDGKHRMFTYKNLPGHKHRFANDVQISIGDAHSGYPVMNSSFSPNSTTLPTTPLNDWLIWHEVGHNAAETPLTVPGATEVANNVLALYMQDRYLGKMNRVADDITVAPEYLEESNGQAWARGGAGDRLLMYAQLKEWAEKNFDIKKWYPDGTPLPEFYSEREGMKGWNLFQLMHRKARGDEVSNDKFGGKNYCAESNGNAADTLMLCASWVAQTDLSEFFKKWNPGANAYQLPGASEMSFEGGVSQSAYNTLASLDLPKPEQGPETINQVTEHKMSAE",glycan array binding signal (z-score),[1],-0.103
same,glycan array binding signal (z-score),[2],0.315
same,glycan array binding signal (z-score),[3],-0.57
same,glycan array binding signal (z-score),[4],-0.299
same,glycan array binding signal (z-score),[5],-1.06
same,glycan array binding signal (z-score),[6],-0.856
same,glycan array binding signal (z-score),[7],0.995
same,glycan array binding signal (z-score),[8],-0.314
same,glycan array binding signal (z-score),[9],0.664
same,glycan array binding signal (z-score),[10],-0.371
same,glycan array binding signal (z-score),[11],-0.894
same,glycan array binding signal (z-score),[12],0.345
same,glycan array binding signal (z-score),[13],-0.523
same,glycan array binding signal (z-score),[14],0.478
same,glycan array binding signal (z-score),[15],-0.484
same,glycan array binding signal (z-score),[16],-0.36
same,glycan array binding signal (z-score),[17],1.19
same,glycan array binding signal (z-score),[18],1.09
same,glycan array binding signal (z-score),[19],-1.43
same,glycan array binding signal (z-score),[20],0.52
same,glycan array binding signal (z-score),[21],0.437
same,glycan array binding signal (z-score),[22],2.04
same,glycan array binding signal (z-score),[23],0.441
